Test results as given in PubChem BioAssay AID1296 (Columbia University Molecular Screening Center, 2008).
Screen size: about 130,000 compounds; about 1,000 (0.77%) were called active. The shares of active, inactive and inconclusive entries below differ from those in the screen.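 Rule for the calls: active = activation at 2 µM above a set limit, confirmed on inspection of the cell images; inconclusive = above the set limit but not confirmed on image inspection; inactive = the rest.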

assay: activators of insulin promoter-driven GFP, primary screen, imaging, TRM-6 cells (human fetal islet line), eGFP reporter, cell count (AID 1296;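 note: share of cells whose green reporter signal exceeds an intensity cutoff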); settings: at 2 µM, active compounds read high, plate-scaled: unstimulated 0, stimulated control 100
How it was run: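 Material: TRM-6 insulin promoter–eGFP reporter cells. Buffer or medium: Low-glucose (5.5 mM) medium with tamoxifen. Probe or stimulus: tamoxifen at 0.75 µM added at seeding for reporter induction. Times: tamoxifen pre-incubation 15 h overnight, then compound exposure 48 h at 37 °C. Detection: high-content imaging of fixed cells with Hoechst nuclear stain.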

Compound | activation
COC(=O)c1[nH]c2cc(C)ccc2c1NC(=O)CN1CCCc2ccccc21 | active: 191%
Cc1ccc(-c2nnn(CC(=O)N(CC3CCCO3)C(C(=O)NC3CCCC3)c3ccc(F)cc3)n2)o1 (stereo unspecified) | active: 500%
CCSc1ncnc2c1sc1nc3c(cc12)COC(C)(C)C3 | inactive: 7.14%
Cc1cccc2nc(-c3ccccc3)nc(N3CCC(O)(c4ccc(Cl)cc4)CC3)c12 | active: 454%
CCn1nnnc1SCC(=O)NC1CCCC1 | inactive: -2.78%
O=C(NC1CCCCC1)C(c1cccnc1)N(C(=O)CCl)c1cccc(Cl)c1 (stereo unspecified) | inconclusive: 614% [cytotoxic]
CC1CCN(C(=O)Cn2c(SCC(=O)Nc3nccs3)nc3ccccc32)CC1 | active: 154%
COc1cccc(Cn2c(-c3nonc3N)nc3ccccc32)c1 | inconclusive: 76.3%
N=C1SCC(=O)N1c1ncc(Cc2cccc(Cl)c2)s1 | active: 408%
O=C1c2ccccc2-c2onc3ccc(Oc4ccccc4)c1c23 | active: 400%
CC(C)(C)c1ccc(OCC(=O)O)cc1 | inconclusive: 415%
CCC(C)(C)NC(=O)C(c1cccn1C)N(Cc1ccccc1)C(=O)Cn1nnc2ccccc21 (stereo unspecified) | inconclusive: 136%
COC(=O)c1cccc(NC(=O)CN(c2ccc3c(c2)OCO3)S(C)(=O)=O)c1C | inconclusive: 417%
O=c1[nH]c(/C=C/c2ccccc2[N+](=O)[O-])nc2ccccc12 | inconclusive: 267%
CC(C)CC(=O)Nc1ccc(S(=O)(=O)NCc2ccco2)cc1 | inconclusive: 93.1%
O=C(CCCc1ccccc1)N1CCN(c2ccc([N+](=O)[O-])cc2)CC1 | inconclusive: 223%
CN(C)CCCN1C(=O)c2cccc3c([N+](=O)[O-])ccc(c23)C1=O | inconclusive: 608%
CCc1c(C)nn(C(=O)/C(C#N)=C\N(C)C)c1C | inconclusive: 365%
O=c1c(Cl)c2oc3ccccc3nc-2c2ccccc12 | inconclusive: 746%
C=CCn1c(SCc2ccc(C#N)cc2)nnc1-c1cccc(OC)c1 | active: 164%
Cc1ccc(Oc2ncccc2COC(=O)Nc2ccccc2C)cc1 | active: 369%
CCOC(=O)C1=C(C)OC(N)=C(C#N)C1c1cc(C)sc1C (stereo unspecified) | inconclusive: 77.1%
O=C1C(Cl)=C(N2CCCCC2)C(=O)C(Cl)=C1c1cnc(N2CCCCC2)s1 | inconclusive: 569%
Cc1cccc(CC2CC(=O)N(c3ncccn3)C2=O)c1 (stereo unspecified) | inactive: -9.52%
CN1CCN2c3ccccc3Cc3ccccc3C2C1 (stereo unspecified) | inconclusive: 271%
CCN(CC)c1ccc2c(Nc3ccccc3)c(C=O)c(=O)oc2c1 | inconclusive: 181%

Fetched by structure from the list above, 2 records:
Compound | activation
CCOC(=O)C1=C(C)OC(N)=C(C#N)C1c1cc(C)sc1C (stereo unspecified) | inconclusive: 77.1%
O=c1[nH]c(/C=C/c2ccccc2[N+](=O)[O-])nc2ccccc12 | inconclusive: 267%
